EP0155104A2, “Free analyte assay” (priority 1984, dated 1985)

Assays:
bovine serum albumin = experiment: Amerlex free T4 assay of euthyroid serum pool with added albumin and SSA
[1] = Amerlex free T4 assay of analbuminaemic patient serum with SSA; conditions: no SSA: 7.1
serum binding proteins = experiment: Amerlex free T4 assay of euthyroid serum pool with added oleic acid (NEFA) and SSA

Compound: O=C(O)c1cc(S(=O)(=O)O)ccc1O [SSA, 5-sulphosalicylic acid]
- (Percentage of original value) FT4 value by kit (bovine serum albumin; SSA 3x10^-3M, added albumin 0 g/l): 100%
- (Percentage of original value) FT4 value by kit (bovine serum albumin; SSA 3x10^-3M, added albumin 10 g/l): 118%
- (Percentage of original value) FT4 value by kit (bovine serum albumin; SSA 3x10^-3M, added albumin 20 g/l): 125%
- (Percentage of original value) FT4 value by kit (bovine serum albumin; SSA 3x10^-3M, added albumin 40 g/l): 146%
- (Percentage of original value) FT4 value by kit (bovine serum albumin; SSA 3x10^-3M, added albumin 80 g/l): 224%
- (Percentage of original value) FT4 value by kit (bovine serum albumin; SSA 10^-3M, added albumin 0 g/l): 100%
- (Percentage of original value) FT4 value by kit (bovine serum albumin; SSA 10^-3M, added albumin 10 g/l): 114%
- (Percentage of original value) FT4 value by kit (bovine serum albumin; SSA 10^-3M, added albumin 20 g/l): 120%
- (Percentage of original value) FT4 value by kit (bovine serum albumin; SSA 10^-3M, added albumin 40 g/l): 150%
- (Percentage of original value) FT4 value by kit (bovine serum albumin; SSA 10^-3M, added albumin 80 g/l): 207%
- FT4 value ([1]; SSA 3x10^-3 M, analbuminaemic patient serum): 11.6 pmol/L
- FT4 value ([1]; SSA 5x10^-2 M, analbuminaemic patient serum (albumin 4 g/l), theoretical 11.0): 9.4 pmol/L
- FT4 value ([1]; SSA 10^-3 M, analbuminaemic patient serum): 10.4 pmol/L
- free T4 value as a percentage of value at zero oleic acid concentration (serum binding proteins; SSA 2x10^-2 M, oleic acid 0 mM/l): 100%
- free T4 value as a percentage of value at zero oleic acid concentration (serum binding proteins; SSA 2x10^-2 M, oleic acid 1.25 mM/l): 85.8%
- free T4 value as a percentage of value at zero oleic acid concentration (serum binding proteins; SSA 2x10^-2 M, oleic acid 2.5 mM/l): 75.2%
- free T4 value as a percentage of value at zero oleic acid concentration (serum binding proteins; SSA 2x10^-2 M, oleic acid 5 mM/l): 66.7%
- free T4 value as a percentage of value at zero oleic acid concentration (serum binding proteins; SSA 2x10^-2 M, oleic acid 10 mM/l): 78.0%
- free T4 value as a percentage of value at zero oleic acid concentration (serum binding proteins; SSA 2x10^-2 M, oleic acid 12.5 mM/l): 101.4%
- free T4 value as a percentage of value at zero oleic acid concentration (serum binding proteins; SSA 2x10^-2 M, oleic acid 15 mM/l): 129.1%
- free T4 value as a percentage of value at zero oleic acid concentration (serum binding proteins; SSA 2x10^-2 M, oleic acid 20 mM/l): 202.1%
- free T4 value as a percentage of value at zero oleic acid concentration (serum binding proteins; SSA 2x10^-3 M, oleic acid 0 mM/l): 100%
- free T4 value as a percentage of value at zero oleic acid concentration (serum binding proteins; SSA 2x10^-3 M, oleic acid 1.25 mM/l): 87.4%
- free T4 value as a percentage of value at zero oleic acid concentration (serum binding proteins; SSA 2x10^-3 M, oleic acid 2.5 mM/l): 83.5%
- free T4 value as a percentage of value at zero oleic acid concentration (serum binding proteins; SSA 2x10^-3 M, oleic acid 5 mM/l): 74.0%
- free T4 value as a percentage of value at zero oleic acid concentration (serum binding proteins; SSA 2x10^-3 M, oleic acid 10 mM/l): 91.3%
- free T4 value as a percentage of value at zero oleic acid concentration (serum binding proteins; SSA 2x10^-3 M, oleic acid 12.5 mM/l): 105.5%
- free T4 value as a percentage of value at zero oleic acid concentration (serum binding proteins; SSA 2x10^-3 M, oleic acid 15 mM/l): 113.4%
- free T4 value as a percentage of value at zero oleic acid concentration (serum binding proteins; SSA 2x10^-3 M, oleic acid 20 mM/l): 188.2%
- free T4 value as a percentage of value at zero oleic acid concentration (serum binding proteins; SSA 5x10^-2 M, oleic acid 0 mM/l): 100%
- free T4 value as a percentage of value at zero oleic acid concentration (serum binding proteins; SSA 5x10^-2 M, oleic acid 1.25 mM/l): 82.1%
- free T4 value as a percentage of value at zero oleic acid concentration (serum binding proteins; SSA 5x10^-2 M, oleic acid 2.5 mM/l): 74.0%
- free T4 value as a percentage of value at zero oleic acid concentration (serum binding proteins; SSA 5x10^-2 M, oleic acid 5 mM/l): 61.8%
- free T4 value as a percentage of value at zero oleic acid concentration (serum binding proteins; SSA 5x10^-2 M, oleic acid 10 mM/l): 70.0%
- free T4 value as a percentage of value at zero oleic acid concentration (serum binding proteins; SSA 5x10^-2 M, oleic acid 12.5 mM/l): 81.3%
- free T4 value as a percentage of value at zero oleic acid concentration (serum binding proteins; SSA 5x10^-2 M, oleic acid 15 mM/l): 104.1%
- free T4 value as a percentage of value at zero oleic acid concentration (serum binding proteins; SSA 5x10^-2 M, oleic acid 20 mM/l): 143.9%
- free T4 value as a percentage of value at zero oleic acid concentration (serum binding proteins; SSA 5x10^-3 M, oleic acid 0 mM/l): 100%
- free T4 value as a percentage of value at zero oleic acid concentration (serum binding proteins; SSA 5x10^-3 M, oleic acid 1.25 mM/l): 106%
- free T4 value as a percentage of value at zero oleic acid concentration (serum binding proteins; SSA 5x10^-3 M, oleic acid 2.5 mM/l): 83.2%
- free T4 value as a percentage of value at zero oleic acid concentration (serum binding proteins; SSA 5x10^-3 M, oleic acid 5 mM/l): 75.2%
- free T4 value as a percentage of value at zero oleic acid concentration (serum binding proteins; SSA 5x10^-3 M, oleic acid 10 mM/l): 92.8%
- free T4 value as a percentage of value at zero oleic acid concentration (serum binding proteins; SSA 5x10^-3 M, oleic acid 12.5 mM/l): 92.0%
- free T4 value as a percentage of value at zero oleic acid concentration (serum binding proteins; SSA 5x10^-3 M, oleic acid 15 mM/l): 101.6%
- free T4 value as a percentage of value at zero oleic acid concentration (serum binding proteins; SSA 5x10^-3 M, oleic acid 20 mM/l): 160.8%
- free T4 value as a percentage of value at zero oleic acid concentration (serum binding proteins; SSA 10^-2 M, oleic acid 0 mM/l): 100%
- free T4 value as a percentage of value at zero oleic acid concentration (serum binding proteins; SSA 10^-2 M, oleic acid 1.25 mM/l): 90.4%
- free T4 value as a percentage of value at zero oleic acid concentration (serum binding proteins; SSA 10^-2 M, oleic acid 2.5 mM/l): 90.4%
- free T4 value as a percentage of value at zero oleic acid concentration (serum binding proteins; SSA 10^-2 M, oleic acid 5 mM/l): 72.1%
- free T4 value as a percentage of value at zero oleic acid concentration (serum binding proteins; SSA 10^-2 M, oleic acid 10 mM/l): 82.4%
- free T4 value as a percentage of value at zero oleic acid concentration (serum binding proteins; SSA 10^-2 M, oleic acid 12.5 mM/l): 98.5%
- free T4 value as a percentage of value at zero oleic acid concentration (serum binding proteins; SSA 10^-2 M, oleic acid 15 mM/l): 123.5%
- free T4 value as a percentage of value at zero oleic acid concentration (serum binding proteins; SSA 10^-2 M, oleic acid 20 mM/l): 186.0%
- free T4 value as a percentage of value at zero oleic acid concentration (serum binding proteins; SSA 10^-3 M, oleic acid 0 mM/l): 100%
- free T4 value as a percentage of value at zero oleic acid concentration (serum binding proteins; SSA 10^-3 M, oleic acid 1.25 mM/l): 94.4%
- free T4 value as a percentage of value at zero oleic acid concentration (serum binding proteins; SSA 10^-3 M, oleic acid 2.5 mM/l): 86.1%
- free T4 value as a percentage of value at zero oleic acid concentration (serum binding proteins; SSA 10^-3 M, oleic acid 5 mM/l): 77.0%
- free T4 value as a percentage of value at zero oleic acid concentration (serum binding proteins; SSA 10^-3 M, oleic acid 10 mM/l): 88.1%
- free T4 value as a percentage of value at zero oleic acid concentration (serum binding proteins; SSA 10^-3 M, oleic acid 12.5 mM/l): 110%
- free T4 value as a percentage of value at zero oleic acid concentration (serum binding proteins; SSA 10^-3 M, oleic acid 15 mM/l): 118%
- free T4 value as a percentage of value at zero oleic acid concentration (serum binding proteins; SSA 10^-3 M, oleic acid 20 mM/l): 285%
